The text below walks through data of article PMC11144933.

Chains of the proteins cited; added tags and fusions are not shown.
UniProt Q61180: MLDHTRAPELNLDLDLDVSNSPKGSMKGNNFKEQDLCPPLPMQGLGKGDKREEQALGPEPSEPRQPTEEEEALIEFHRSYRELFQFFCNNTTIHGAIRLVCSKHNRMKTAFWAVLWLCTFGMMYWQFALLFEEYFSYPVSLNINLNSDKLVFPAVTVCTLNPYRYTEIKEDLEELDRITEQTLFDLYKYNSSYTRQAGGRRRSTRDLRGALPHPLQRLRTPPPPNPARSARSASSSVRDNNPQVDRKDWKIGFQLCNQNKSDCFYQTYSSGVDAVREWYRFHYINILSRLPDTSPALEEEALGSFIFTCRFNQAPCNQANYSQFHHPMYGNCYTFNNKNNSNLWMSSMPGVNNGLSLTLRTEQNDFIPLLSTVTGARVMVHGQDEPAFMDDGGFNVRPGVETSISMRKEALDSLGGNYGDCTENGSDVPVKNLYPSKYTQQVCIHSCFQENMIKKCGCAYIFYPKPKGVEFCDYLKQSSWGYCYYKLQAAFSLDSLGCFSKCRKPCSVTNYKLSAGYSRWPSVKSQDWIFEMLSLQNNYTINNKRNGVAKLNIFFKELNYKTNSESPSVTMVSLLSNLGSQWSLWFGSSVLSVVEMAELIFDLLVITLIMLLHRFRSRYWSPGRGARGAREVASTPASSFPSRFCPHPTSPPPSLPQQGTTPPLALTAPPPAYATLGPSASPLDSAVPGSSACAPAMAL

This test deals with epithelial sodium channel alpha subunit (α-ENaC) (mouse (endogenous in MIN6)) (UniProt Q61180). As to the kind of experiment: affinity purification with mass spectrometry; LC-MS/MS screen for α-ENaC binding proteins in MIN6 cells; how α-ENaC was isolated is not told.

No constants are given. Whether binding was seen depends on the method and setting. Binding seen in cells or lysates may run through a third protein. A yes stands for co-enrichment or nearness to the bait. Other partners may have been found.

B1: Isoform 3 of N-alpha-acetyltransferase 50 (protein, UniProt Q6PGB6-3 1-129)
chain: MKGSRIELGDVTPHNIKQLKRLNQVIFPVSYNDKFYKDVLEVGELAKLGTKMLNHVLNICEKDGTFDNIYLHVQISNESAIDFYRKFGFEIIETKKNYYKRIEPADAHVLQKNLKVPSGQNAETQKTDN
In the case of B1, the binding result was “binds”.

B2: 5′-nucleotidase domain-containing protein 3 (protein, UniProt Q3UHB1 1-546)
chain: MATVAAAARGAGARAAAGLRSCGGAVARERPRSGCARRLCSAPAAPAAVDMKSYLWARYHEAKRSTDELVPSIMNNLLNPDAIFSNNEMSLSDIEIYGFDYDYTLVFYSKHLHTLIFNAARDLLINEHRYPVEIRKYEYDPSFAIRGLHYDVQRAVLMKIDAFHYIQMGTVYRGLSVVPDEEVIDMYEGSHVPLEQMSDFYGKSSHGNTMKQFMDIFSLPEMTLLSCVNEHFLKNNIDYEPVHLYKDVKDSIRDVHIKGIMYRAIEADIEKYICYADQTRAVLAKLAAHGKKMFLITNSPSSFVDKGMRYIVGKDWRDLFDVVIVQAEKPNFFNDKRRPFRKVNEKGVLLWDKIHKLQKGQIYKQGNLYEFLKLTGWRGSKVLYFGDHIYSDLADLTLKHGWRTGAIIPELRSELRIMNTEQYIQTMTWLQTLTGLLEQMQVHRDAESQLVLQEWKKERKEMREMTKSFFNAQFGSLFRTDQNPTYFLRRLSRFADIYMASLSCLLNYDVHHTFYPRRTPLQHELPAWSDSPSAFKAPLLQEAQAK
Turning to B2, the binding result is “binds”.

B3: ATP-citrate synthase (protein, UniProt Q91V92 1-1091)
chain: MSAKAISEQTGKELLYKYICTTSAIQNRFKYARVTPDTDWAHLLQDHPWLLSQSLVVKPDQLIKRRGKLGLVGVNLSLDGVKSWLKPRLGHEATVGKAKGFLKNFLIEPFVPHSQAEEFYVCIYATREGDYVLFHHEGGVDVGDVDAKAQKLLVGVDEKLNTEDIKRHLLVHAPEDKKEVLASFISGLFNFYEDLYFTYLEINPLVVTKDGVYILDLAAKVDATADYICKVKWGDIEFPPPFGREAYPEEAYIADLDAKSGASLKLTLLNPKGRIWTMVAGGGASVVYSDTICDLGGVNELANYGEYSGAPSEQQTYDYAKTILSLMTREKHPEGKILIIGGSIANFTNVAATFKGIVRAIRDYQGPLKEHEVTIFVRRGGPNYQEGLRVMGEVGKTTGIPIHVFGTETHMTAIVGMALGHRPIPNQPPTAAHTANFLLNASGSTSTPAPSRTASFSESRADEVAPAKKAKPAMPQGKSATLFSRHTKAIVWGMQTRAVQGMLDFDYVCSRDEPSVAAMVYPFTGDHKQKFYWGHKEILIPVFKNMADAMKKHPEVDVLINFASLRSAYDSTMETMNYAQIRTIAIIAEGIPEALTRKLIKKADQKGVTIIGPATVGGIKPGCFKIGNTGGMLDNILASKLYRPGSVAYVSRSGGMSNELNNIISRTTDGVYEGVAIGGDRYPGSTFMDHVLRYQDTPGVKMIVVLGEIGGTEEYKICRGIKEGRLTKPVVCWCIGTCATMFSSEVQFGHAGACANQASETAVAKNQALKEAGVFVPRSFDELGEIIQSVYEDLVAKGAIVPAQEVPPPTVPMDYSWARELGLIRKPASFMTSICDERGQELIYAGMPITEVFKEEMGIGGVLGLLWFQRRLPKYSCQFIEMCLMVTADHGPAVSGAHNTIICARAGKDLVSSLTSGLLTIGDRFGGALDAAAKMFSKAFDSGIIPMEFVNKMKKEGKLIMGIGHRVKSINNPDMRVQILKDFVKQHFPATPLLDYALEVEKITTSKKPNLILNVDGFIGVAFVDMLRNCGSFTREEADEYVDIGALNGIFVLGRSMGFIGHYLDQKRLKQGLYRHPWDDISYVLPEHMSM
Take B3: the binding entry is recorded as “binds”.
